The subject of the assay is P. berghei. Description: Standard 4 day Peters assay, P. berghei in mice, drug intraperitoneally. In kind it is in vivo. To be noted: P. berghei infections in mice, twice a day days 0-3, FIG. 11. Here is the method: FIG. 11. The effect of the racemic form of propranolol on growth of P. berghei in vivo. In vivo mouse experiments were done with P. berghei using a standard 4 day Peters assay (W. Peters, B. L. Robinson, Ann Trop Med Parasitol 78, 561 (1984)). P. berghei and the racemic form of propranolol were administered intraperitoneally; five mice were used per data point. In IC50 studies, 5 data points were taken. Mice were given 5×10^7 parasites on day 0, and indicated concentrations of drug twice a day on days 0-3. Tail bleeds were carried out on day 4 to ascertain parasitemia, after which the animals were sacrificed.
FIG. 12. The effect of ICI 118,551 on growth of P. berghei in vivo. In vivo mouse experiments were done with P. berghei using a standard 4 day Peters assay (W. Peters, B. L. Robinson, Ann Trop Med Parasitol 78, 561 (1984)). P. berghei and ICI 181,551 were administered intraperitoneally; five mice were used per data point. In IC50 studies, 5 data points were taken. Mice were given 5×10^7 parasites on day 0, and indicated concentrations of drug twice a day on days 0-3. Tail bleeds were carried out on day 4 to ascertain parasitemia, after which the animals were sacrificed.
In vivo mouse experiments were done with P. berghei using a standard 4 day Peters assay (W. Peters, B. L. Robinson, Ann Trop Med Parasitol 78, 561 (1984)). […]

The compound `CC(C)NCC(O)COc1cccc2ccccc12` (racemic) [racemic propranolol] had an IC50 of 7.5 mg/kg/day.

The values are drawn from patent publication US20040220198A1, “Methods for treating malaria by modulation of G protein function” (priority 2002, published 2004).
